## Percent effect of library compounds

From ChEMBL document CHEMBL3988442, “University of Dundee, Small-Polar-MMV Screening Library” (2021).

A: 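Growth of Mycobacterium tuberculosis over 3 days (7H9 medium with glucose and tyloxapol); the read-out is not stated. Compounds at 50 µM. The record gives no direction; compounds that gave an IC50 in retests scored well above the rest, so higher reads as more growth inhibition. Of about 69,000 compounds tested this way, about 760 (1.1%) reached 50% or more in at least one test.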
B: 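Phenotypic screen: M. tuberculosis growth, cholesterol and DPPC medium, 4 days; the read-out is not stated. Compounds at 50 µM. Higher reads as more growth inhibition (inferred: compounds with an IC50 in retests scored well above the rest). Size under these conditions: about 69,000 compounds, about 370 of them at 50% or above in at least one test.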

Values are the deposited “Percent Effect”, in %.
The controls that fix the scale are not given in the record; negative values are as filed.
Compounds were drawn at random from those tested, without regard to their results.
Two or more numbers in one place are separate tests of the same structure; such repeats can differ widely.

compound | A | B
COCCCN1CCC(NC2CSCCc3ccccc32)CC1 (stereo not drawn) | -48.68 | -4.597
CC1=NOC(C(=O)N(C)CCCn2nc(C)cc2C)C1 (stereo not drawn) | -4.611 and -17.61 | 10.79
CCOc1ccc(C(=O)N2CCCC(n3ccnc3C)C2)cc1OC (stereo not drawn) | -20.44 | -20.14
Cc1ccc(NC(=O)NCCc2cnn(C)c2)c(N(C)C)n1 | 17.27 | -2.075
CN(C)CCN1CCCC12CCN(Cc1nccn1C)CC2.O=C(O)C(F)(F)F.O=C(O)C(F)(F)F.O=C(O)C(F)(F)F | 42.15 | -3.483
Cc1oc(-c2ccco2)nc1CC(=O)NCC(C)(C)N(C)C | 30.29 | 20.67
CC(=O)Nc1ccc(CNCC(O)c2ccccc2)cc1 (stereo not drawn) | 2.847 | -8.202 and -10.19
COCCN1CC=C(c2cccc(OC)c2)CC1 | 3.874 | 10.76
Cc1nc(C)n(CC2CCCN(CCc3ccccc3)C2)n1 (stereo not drawn) | 26.81 | 19.07
CC(C)n1c2ccccc2c2c1cc(C(=O)NC1CC1)n2C(=O)N(C)C | -22.55 | -7.854
COCC(=O)N1CCCC(C(=O)NCc2cc(CC(C)C)on2)C1 (stereo not drawn) | -41.36 | -40.67
CC(=O)c1ccccc1C(=O)NCC1(CO)CC1 | -26.23 | -16.01
CC(=O)N(Cc1noc(C)n1)C1CCN(Cc2ccccn2)C1 (stereo not drawn) | -18.24 | -21.86
Cc1cc(C(F)(F)F)nn1CC(C)C(=O)Nc1cccnc1 (stereo not drawn) | 25.07 | 1.754
CCS(=O)(=O)N1CCCC(Cc2cnccn2)C1 (stereo not drawn) | -2.681 | -31.03
Cc1nn(C)cc1S(=O)(=O)NCC(c1ccccc1Cl)N1CCCC1 (stereo not drawn) | 8.801 | 5.794 and 0.3925
COCCN(CCC#N)S(=O)(=O)c1ccc(F)cc1F | -8.191 | -20.26
Cc1nc(CCNC(=O)Nc2cc(C(F)(F)F)c[nH]c2=O)cs1 | 29.25 | 15.59
Cc1nn(C)cc1CN1CCCC(n2c(=O)oc3ccc(Cl)cc32)C1 (stereo not drawn) | -42.52 | -0.6272 and -39.84
CC(C)N1CCCn2c(nc(CNC(=O)c3nccn3C)cc2=O)C1.O=C(O)C(F)(F)F.O=C(O)C(F)(F)F | -5.688 and -19.46 | -10.45
Cc1ccc(-c2cnnc(N3CCCC3c3nonc3C)n2)o1 (stereo not drawn) | 8.005 | 9.172
CS(=O)(=O)N1CCCC12CCCN(C(=O)c1ccc3[nH]ccc3c1)C2 (stereo not drawn) | 6.305 and 3.487 | -2.773 and 0.3411
CN1CC[C@]2(CN(CC3CCOCC3)C[C@H]2c2ccccc2)C1=O.O=C(O)C(F)(F)F | 1.062 | 5.861
CC(C)Nc1nc2c(cc1C(=O)NCC1CC1)CCN(C)CC2.O=C(O)C(F)(F)F.O=C(O)C(F)(F)F | 2.621 and 2.038 | -7.486
Cc1[nH]ncc1CCCNC(=O)N1CCCC(c2nncn2C)C1 (stereo not drawn) | -7.407 | -11.58
Cc1ncsc1C(=O)N(C)Cc1ccncc1 | -45.86 | -17.5
CCCc1ccc(CN2CCC3(CCC(=O)N(CCO)C3)CC2)o1 | 13.6 | 9.059
O=C1CCCc2[nH]c(=O)c(C(=O)N(CC3CCCCC3)C3CC3)cc21 | -26.42 | -28.12
[H][C@]12CC[C@]([H])(CN(C(=O)C3CCC3)C1)N(C(=O)c1cccc(N(C)C)c1)C2 | 6.532 | 9.306 and -0.8359
Cc1cccc2cc(CN3CCC(N4CCOCC4)CC3)c(=O)[nH]c12 | -0.0705 and 12.72 | 6.848
CN(Cc1cn2c(n1)CN(c1ncc(F)cn1)CC2)Cc1ccco1.O=C(O)C(F)(F)F.O=C(O)C(F)(F)F | 6.681 | -26.06
CCCc1cc(C(=O)NCCN2C(=O)c3ccccc3C2=O)[nH]n1 | 34.42 | 22.63
Cc1cncc(C(=O)N2CCCC(O)(CN3CCCC3)C2)c1 (stereo not drawn) | 10.66 | 15.3
COC(=O)c1ccc(Cl)c(NS(=O)(=O)c2cnn(C)c2)c1 | 3.228 | 0.8761
COCCN1CCC2(COCc3cnc(N4CCOCC4)nc32)C1.O=C(O)C(F)(F)F (stereo not drawn) | -27.41 | -16.34
CN1CC(=O)N(c2cccc(F)c2)CC12CCN(Cc1ccccn1)C2 (stereo not drawn) | -0.1647 and -44.59 | -2.698 and 5.274
COc1ccc(-c2noc(C3CCS(=O)(=O)C3)n2)cc1OC (stereo not drawn) | 19.12 and 0.04512 | -3.949
Cc1cc(C(=O)N2CCCC2c2nc(C)cc(O)n2)on1 (stereo not drawn) | 32.05 | 11.56
Fc1ccc2c(c1)C1(CCNCC1)CC2OCC1CC1 (stereo not drawn) | -24.63 and 0.6204 | -5.986 and 15.31
O=C(CC1CCc2ccccc21)N1CCC(C(=O)O)(n2ccnc2)CC1 (stereo not drawn) | -3.183 and -35.21 | -7.841
CCCc1noc(CN2CCOCC2C)n1 (stereo not drawn) | -8.97 | -18.87
O=C(c1ccoc1)N1CCOCC2(CCN(Cc3cccs3)C2)C1 (stereo not drawn) | 15.56 | -7.514
[H][C@]12CC[C@]([H])(CN(C(=O)C3CCC3)C1)N(C(=O)c1ccccc1SC)C2 | -19.02 | -10.33
Cc1nc(-c2ccco2)ccc1C(=O)N1CCn2c(C)nnc2C1 | -4.732 | 2.429
c1nc(CCNc2nc(C3CC3)nc3c2CCNCC3)c[nH]1 | 21.08 and 15.54 | 13.12 and 8.648
CCCN(CC(=O)OC)S(=O)(=O)c1cnc2c(c1)c(C)nn2C | 16.66 | -2.761 and -1.896
COCc1nc2n(n1)CCCC2Nc1nc(C)ns1 (stereo not drawn) | 6.441 | 1.937
CC(C)(O)c1cc(CC2(NCc3ccco3)COC2)no1 | 17.21 and -5.074 | 5.284
CCOc1ccc(C(=O)N2Cc3cnc(CC)nc3C2)o1 | 10.36 | 6.343 and 6.68
CCn1c(CC2CCNCC2)nn(Cc2ccc(C(=O)NC)o2)c1=O | -17.85 and -6.12 | -10.14

4 of the entries, repeated:

For Cc1nn(C)cc1S(=O)(=O)NCC(c1ccccc1Cl)N1CCCC1 (stereo not drawn) the result was A: 8.801%; B: 5.794% and 0.3925%.
For COCCN(CCC#N)S(=O)(=O)c1ccc(F)cc1F the result was A: -8.191%; B: -20.26%.
For CC(C)n1c2ccccc2c2c1cc(C(=O)NC1CC1)n2C(=O)N(C)C the result was A: -22.55%; B: -7.854%.
For COC(=O)c1ccc(Cl)c(NS(=O)(=O)c2cnn(C)c2)c1 the result was A: 3.228%; B: 0.8761%.